Record: PubChem BioAssay AID652243 (Drosophila RNAi Screening Center, 2013)
The deposit covers about 24,000 reagents; this is an unselected part of those with a known target gene and a result. In the full data, 246 (1%) were called active. 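Plates not normalised; calls are printed but the firefly/Renilla ratio behind them is not deposited; fold cut for lowering reported inconsistently.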 Raw values vary from plate to plate and are shown uncorrected. A plus sign joins genes that one reagent is predicted to hit. No sequences are given here. Not stated in the record: the amount of reagent.

Test: 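Fly regulators of androgen-dependent reporter output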 (primary screen)
System: Drosophila S2R+ cells
Reagent: long dsRNA against Drosophila genes
Time to read-out: 72 h (48 h, then 24 h hormone)
Conditions: synthetic androgen R1881 at 10 nM for 24 h
Measured: 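Per-well raw luminescence of the androgen-driven firefly reporter and of the Renilla control, two replicates each, without normalisation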
Reading the numbers: firefly reporter light: higher = more light from androgen-responsive reporter; Renilla control light: higher = more constitutive control signal (cell number, transfection)
Hit rule: 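Across duplicate plates, a knock-down whose log firefly/Renilla ratio shifted a set fold down or up from the GFP/LacZ control mean was a hit; the downward cut appears as both 1.5 and 3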
Calls: active = hit: reporter lowered or raised; inactive = no hit

gene,DRSC id,"firefly reporter light, replicate 1","firefly reporter light, replicate 2","Renilla control light, replicate 1","Renilla control light, replicate 2",activity call
CG9517 (retired record),DRSC20192,5.90e5,5.92e5,3.78e6,3.29e6,inactive
CG9517 (retired record),DRSC20193,2.15e5,2.73e5,1.91e6,2.00e6,inactive
CG9517 (retired record),DRSC23550,7.18e5,7.64e5,7.42e5,1.02e6,inactive
CG10338,DRSC02039,1.14e5,1.38e5,1.45e6,1.43e6,inactive
CG12910,DRSC06225,2.00e6,1.11e6,1.77e6,1.20e6,inactive
Ntmt,DRSC06624,2.80e5,2.90e5,2.65e6,1.92e6,inactive
Ntmt,DRSC28647,7.58e5,4.96e5,1.27e6,1.35e6,inactive
CG11069,DRSC14289,73194,64737,4.64e5,6.08e5,inactive
Atg10 + CG12822,DRSC06796,2.28e5,1.77e5,1.99e6,1.87e6,inactive
fs(1)h,DRSC18778,4.77e5,4.01e5,4.45e6,2.66e6,inactive
fs(1)h,DRSC29017,3.44e5,3.80e5,9.24e5,8.79e5,active
fs(1)h,DRSC37010,,,,,inactive
PIG-X,DRSC22721,3.80e5,4.51e5,1.77e6,1.89e6,inactive
shakB,DRSC20423,6.36e5,1.01e6,3.37e6,1.57e6,inactive
shakB,DRSC20585,2.73e5,1.68e5,8.64e5,6.66e5,inactive
shakB,DRSC21445,6.84e5,8.82e5,2.07e6,1.67e6,inactive
shakB,DRSC22817,6.20e5,1.08e6,1.25e6,1.94e6,inactive
shakB,DRSC26262,3.69e5,4.40e5,3.38e5,7.52e5,inactive
CCDC53,DRSC03056,1.58e5,1.66e5,1.30e6,1.28e6,inactive
Elba2,DRSC00731,7.68e5,6.48e5,3.54e6,2.06e6,inactive
Elba2,DRSC28543,6.10e5,7.76e5,8.79e5,1.30e6,inactive
Sik3,DRSC06505,1.48e5,1.35e5,2.54e6,2.31e6,inactive
Sik3,DRSC06771,3.71e5,3.24e5,4.01e5,3.30e5,inactive
Sik3,DRSC29149,5.55e5,4.94e5,1.13e6,1.10e6,inactive
Sik3,DRSC29722,4.33e5,3.76e5,1.61e6,1.46e6,inactive
Sik3,DRSC37060,,,,,inactive
Sik3,DRSC39289,,,,,inactive
beta4GalNAcTB,DRSC14869,2.04e5,2.11e5,2.59e6,2.75e6,inactive
CG31068,DRSC13820,1.45e5,77977,1.54e5,1.71e5,inactive
CG42249,DRSC19383,4.51e5,4.68e5,3.40e6,3.50e6,inactive
CG42249,DRSC19826,3.34e5,4.15e5,3.66e6,3.30e6,inactive
CG42249,DRSC28504,2.14e5,4.72e5,7.68e5,1.34e6,inactive
Orc5,DRSC03390,2.50e5,1.90e5,1.25e6,1.62e6,inactive
Orc5,DRSC28207,6.40e5,5.82e5,1.48e6,1.39e6,inactive
CG14966,DRSC08425,83529,81174,9.28e5,1.22e6,inactive
CG18095,DRSC01948,2.90e5,2.84e5,1.54e6,2.00e6,inactive
sc,DRSC18830,68055,94677,2.27e6,1.93e6,inactive
sc,DRSC29307,1.17e6,1.03e6,1.40e6,1.25e6,inactive
CG10654,DRSC09767,2.72e5,92288,2.66e6,9.75e5,inactive
CG34443,DRSC29357,6.90e5,6.70e5,1.62e6,1.62e6,inactive
RnrL,DRSC03413,5.20e5,7.89e5,1.46e6,2.13e6,inactive
CG41281 (retired record),DRSC38734,8.86e5,8.01e5,1.78e6,2.37e6,inactive
bgcn,DRSC04062,3.27e5,3.57e5,2.16e6,1.67e6,inactive
bgcn,DRSC04063,2.87e5,3.48e5,1.73e6,1.65e6,inactive
Paics,DRSC20305,75343,71179,5.52e5,4.81e5,inactive
CG31465,DRSC16090,77624,87357,7.43e5,6.54e5,inactive
CG31465,DRSC26353,3.08e5,2.00e5,6.88e5,6.72e5,inactive
CG31221,DRSC14335,1.67e5,2.66e5,2.66e6,3.57e6,inactive
CG31221,DRSC16217,2.69e5,1.91e5,2.91e6,2.67e6,inactive
CG31221,DRSC23748,5.88e5,4.80e5,4.78e5,4.25e5,inactive
Lamp1,DRSC03727,2.94e5,2.77e5,1.21e6,1.46e6,inactive
CG31921,DRSC00013,1.80e5,1.68e5,7.50e5,6.67e5,inactive
CG14286,DRSC14767,1.77e5,2.28e5,2.75e6,3.02e6,inactive
CG14286,DRSC29125,7.16e5,1.06e6,1.52e6,1.50e6,inactive
dila,DRSC06607,4.16e5,3.24e5,3.08e6,2.32e6,inactive
dila,DRSC26509,2.64e5,2.12e5,3.32e5,4.22e5,inactive
CG12224,DRSC14480,85875,1.42e5,2.03e6,1.94e6,inactive
CG8519,DRSC10985,1.23e5,1.45e5,1.38e6,1.70e6,inactive
CG8519,DRSC26203,4.55e5,3.62e5,6.94e5,6.32e5,inactive
